Tests used:
[1] = Image quality of printed images (sharpness and optical density); parameters: key: ⊕: No blurring and high density; .diamond.: Slight blurring and high density; .O slashed.: Severe blurring and low density; settings: gelatin coated recording medium
Description: (§1) 100 g of each ink were prepared by heating the necessary components from Table 3 (all amounts are indicated in grams) together with water at a temperature of 50° C. under stirring for one hour. The resulting solution was cooled down to 20° C., its pH value was adjusted to 7.5 and the solution was passed through a Millipore® filter of 0.5 μm pore diameter.
(§2) A recording medium for testing purposes was prepared in the following way: 30 g of gelatin with a high isoelectric point (type St 70,810, available from Deutsche Gelatinefabriken, Eberbach, Germany) were dissolved in 360 ml of deionised water. 1 g of a surfactant (Olin 10G, available from Olin Corporation, Norwalk, USA) were added to this solution. Immediately before coating 6.6 g of a solution of 2-(4-dimethyl-carbamoyl-pyridino)-ethanesulfonate (3%) were added and the pH value was adjusted to 6.5. 100 g/m^2 of this solution was then coated onto a resin coated paper support using a bar coater. The recording medium prepared in this way was dried for 12 hours.
(§3) The inks were then jetted onto this recording medium with a type 3024 IRIS ink jet printer to check their properties during printing as well as the quality of the printed images.
The printed images were evaluated in respect of sharpness and optical density in the following way: […]

[2] = Smudge resistance of printed samples; parameters: key: ⊕: No or little smear; .diamond.: Slight smear; .O slashed.: Severe smear; settings: dye patch of high density rubbed with slightly wet finger
Description: as §1, §2, §3
The smudge behavior of printed samples was determined by rubbing a dye patch of high density with a slightly wet finger. The smudge resistance is indicated in the following way: […]

[3] = Water fastness of printed samples (bleeding); parameters: key: ⊕: No bleeding; .diamond.: Slight bleeding; .O slashed.: Severe bleeding; settings: soaked 1 minute, room temperature, deionised water
Description: as §1, §2, §3
The printed samples were soaked for 1 minute at room temperature in deionised water. Afterwards bleeding was evaluated in the following way: […]

[4] = Light fastness of printed samples (density loss); settings: 6500 W Xenon lamp, total illumination 40 kJoule/cm^2
Description: as §1, §2, §3
The printed samples were irradiated in an ATLAS Ci35A Weather-O-Meter®with a 6500 W Xenon lamp until a total illumination of 40 kJoule/cm^2 was reached. The density loss was measured with an X-Rite® densitometer and evaluated in the following way: […]

Compound | (E) Image quality [1] | (F) Smudge resistance [2] | (G) Water fastness [3] | (H) Light fastness [4]
Nc1ccc2cc(S(=O)(=O)O)cc(O)c2c1N=Nc1ccc(Nc2nc(NCCO)nc(Nc3cccc(S(=O)(=O)O)c3)n2)cc1S(=O)(=O)O [(1)] | ⊕ | .diamond. | .diamond. | ⊕ (Less than 10% density loss)
COc1cc(N=Nc2cc(S(=O)(=O)O)c3cccc(S(=O)(=O)O)c3c2)c(C)cc1Nc1nc(SCCCS(=O)(=O)O)nc(SCCCS(=O)(=O)O)n1 [(2)] | ⊕ | ⊕ | .diamond. | ⊕ (Less than 10% density loss)
CCOc1nc(Nc2cc(C)c(N=Nc3cc(S(=O)(=O)O)c4cccc(S(=O)(=O)O)c4c3)cc2OC)nc(SCCCS(=O)(=O)O)n1 [(100)] | ⊕ | ⊕ | ⊕ | ⊕ (Less than 10% density loss)
CCOc1nc(Nc2ccc(N=Nc3c(N)ccc4cc(S(=O)(=O)O)cc(O)c34)c(S(=O)(=O)O)c2)nc(SCCCS(=O)(=O)O)n1 [(113)] | ⊕ | ⊕ | ⊕ | ⊕ (Less than 10% density loss)
CCN(c1ccccc1)c1nc(Nc2cc(S(=O)(=O)O)cc3cc(S(=O)(=O)O)c(N=Nc4ccccc4S(=O)(=O)O)c(O)c23)nc(SCCCS(=O)(=O)O)n1 [(117)] | ⊕ | ⊕ | ⊕ | .O slashed. (More than 10% density loss)
COc1cc(N=Nc2cc(S(=O)(=O)O)c3cccc(S(=O)(=O)O)c3c2)c(C)cc1Nc1nc(SCCCS(=O)(=O)O)nc(N(C)CCO)n1 [(120)] | ⊕ | ⊕ | ⊕ | ⊕ (Less than 10% density loss)
Nc1ccc2cc(S(=O)(=O)O)cc(O)c2c1N=Nc1ccc(Nc2nc(SCCCS(=O)(=O)O)nc(N(CCO)CCO)n2)cc1S(=O)(=O)O [(121)] | ⊕ | ⊕ | ⊕ | ⊕ (Less than 10% density loss)

Reference: US6068687A, “Azo dyes and their preparation and use” (Ilford Imaging Switzerland GmbH, priority 1997, dated 2000)
